Results on 2 molecules are retold here after patent US20240279321A1 (THERINI BIO, published 2024).

The test deals with T1, Mouse P2 peptide (mouse).
T1 sequence (peptide): YSMKETTMKIIPFNRLSIG
Briefly: ELISA.

No constants are given. Whether binding was seen depends on the method and setting. Some binding calls cover weakened binding; strength is not graded here. Where no end group is shown, it is not given here. The star is where a group is joined. Biotin = O=C1N[C@H]2[C@H](CS[C@H]2CCCCC(=O)*)N1

B1: Fab of antibody clone 60143 (ADI-60143 Fab) (Fab, V domains shown)
VH: QVQLVQSGAEVKKPGASVKVSCKASGYTFTSTWIHWVRQAPGQGLEWIGLIDPSDSYTNYNQKFRGRATLTVDTSTSTAYMELSSLRSEDTAVYYCASSKPTGGWGQGTTVTVSS
VL: DIVMTQSPLSLPVTPGEPASISCRSSKSLLHSSGITYLSWYLQKPGQSPQLLIYQMSNLASGVPDRFSGSGSGTDFTLKISRVEAEDVGVYYCAQNLELPLTFGGGTKVEIKR
notes: The crystal model holds chain H residues 1-127 and 134-214 and chain L residues 1-213; not shown: The papain cleavage limit is not stat
For B1, the binding result was “binds”.

B2: antibody clone 60143 (full length ADI-60143 IgG) (antibody, V domains shown)
VH: QVQLVQSGAEVKKPGASVKVSCKASGYTFTSTWIHWVRQAPGQGLEWIGLIDPSDSYTNYNQKFRGRATLTVDTSTSTAYMELSSLRSEDTAVYYCASSKPTGGWGQGTTVTVSS
VL: DIVMTQSPLSLPVTPGEPASISCRSSKSLLHSSGITYLSWYLQKPGQSPQLLIYQMSNLASGVPDRFSGSGSGTDFTLKISRVEAEDVGVYYCAQNLELPLTFGGGTKVEIKR
For B2, the binding result is “binds”.
